Assay results from article PMC6957519, “NLRP6 self-assembles into a linear molecular platform following LPS binding and ATP stimulation” (Scientific Reports, 2020).
These are yes or no findings as the source states them, for the method shown.

Columns and labels:
[1] = target: Recombinant full-length human NLRP6 (1–892) (human) (UniProt P59044); assay: condition: only monomer preparation, without added LPS; negative-stain electron microscopy with 3D reconstruction; NLRP6 monomer preparation, no ligand added; 16128 particles; EMAN and EMAN2; both purified
[2] = target: Recombinant full-length human NLRP6 (1–892) (human) (UniProt P59044); assay: SEC; NLRP6 monomer incubated with ATP, without LPS; Superdex 200; both purified
[3] = target: Recombinant full-length human NLRP6 (1–892) (human) (UniProt P59044); assay: condition: only in 20 mM MES pH 6.5, 0.5 M NaCl, 5% glycerol, 0.2-0.5 M Arginine, without added LPS; SEC; NLRP6 alone, no ligand added; buffer 20 mM MES pH 6.5, 0.5 M NaCl, 5% glycerol, 0.2-0.5 M Arginine; analytical gel filtration; both purified

binding [1]: no binding | binding [3]: no binding
B1: Recombinant full-length human NLRP6 (1–892) (natural protein, UniProt P59044 1-892, looked up)
chain: MDQPEAPCSSTGPRLAVARELLLAALEELSQEQLKRFRHKLRDVGPDGRSIPWGRLERADAVDLAEQLAQFYGPEPALEVARKTLKRADARDVAAQLQERRLQRLGLGSGTLLSVSEYKKKYREHVLQLHARVKERNARSVKITKRFTKLLIAPESAAPEEAMGPAEEPEPGRARRSDTHTFNRLFRRDEEGRRPLTVVLQGPAGIGKTMAAKKILYDWAAGKLYQGQVDFAFFMPCGELLERPGTRSLADLILDQCPDRGAPVPQMLAQPQRLLFILDGADELPALGGPEAAPCTDPFEAASGARVLGGLLSKALLPTALLLVTTRAAAPGRLQGRLCSPQCAEVRGFSDKDKKKYFYKYFRDERRAERAYRFVKENETLFALCFVPFVCWIVCTVLRQQLELGRDLSRTSKTTTSVYLLFITSVLSSAPVADGPRLQGDLRNLCRLAREGVLGRRAQFAEKELEQLELRGSKVQTLFLSKKELPGVLETEVTYQFIDQSFQEFLAALSYLLEDGGVPRTAAGGVGTLLRGDAQPHSHLVLTTRFLFGLLSAERMRDIERHFGCMVSERVKQEALRWVQGQGQGCPGVAPEVTEGAKGLEDTEEPEEEEEGEEPNYPLELLYCLYETQEDAFVRQALCRFPELALQRVRFCRMDVAVLSYCVRCCPAGQALRLISCRLVAAQEKKKKSLGKRLQASLGGGSSSQGTTKQLPASLLHPLFQAMTDPLCHLSSLTLSHCKLPDAVCRDLSEALRAAPALTELGLLHNRLSEAGLRMLSEGLAWPQCRVQTVRVQLPDPQRGLQYLVGMLRQSPALTTLDLSGCQLPAPMVTYLCAVLQHQGCGLQTLSLASVELSEQSLQELQAVKRAKPDLVITHPALDGHPQPPKELISTF
notes: NLRP6, human, full length, residues 1-892; Number of copies depends on the condition: monomer in the arginine buffer, dimer with LPS, tetramer, hexamer and longer linear oligomers with LPS and ATP; also called NLRP6 monomer; NLRP6 dimer; not shown: His-tag, N-terminal, cleaved; MBP, N-terminal, cleaved
binding [2]: no binding (condition: with ATP, without LPS)
